Reference: PubChem BioAssay AID2685 (National Center for Advancing Translational Sciences (NCATS), 2010)
Screen size: about 320,000 compounds; about 2,100 (0.66%) were called active. The shares of active, inactive and inconclusive entries below differ from those in the screen. Calls follow the shape of the dose curve; as a rule, active = well fitted inhibition curve with a large enough effect in the signal ratio, with a control signal flat (not every such curve was filed as active); inconclusive = small, poorly fitted or top-dose-only effect, or effect the other way, or a change in a side signal; inactive = flat fitted curve, though single readings scatter; the % refers to the signal ratio. Where the call is inconclusive, the potency comes from a doubtful curve fit.

Assay: qHTS Assay for Lipid Storage Modulators in Drosophila S3 Cells
Settings: BODIPY lipid droplet fluorescence, 18-24 h, cells fed with added oleic acid; series mostly up to 46.1 µM
Summary of the method: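 Laser-scanning cytometry quantifies lipid droplet accumulation (500–530 nm total intensity; droplet/cell object ratio) in oleic acid-fed (400 uM added) Drosophila S3 cells treated with a concentration series. 20 uM Triacsin C defined 100% inhibition.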
Potency is read from the fitted curve at half-maximal effect.

Row | Compound | Potency
1 | CC(c1ccccc1)N1C(=O)c2ccc(C(=O)Nc3ccccc3C(=O)O)cc2C1=O (stereo unspecified) | inconclusive: 2060 nM [activator, full curve, poor fit]
